Several values for one entry are separate records, joined by “and”; a condition that tells them apart may be missing. Equal values may be shown once. Screen size: about 580,000 compounds; about 6,100 (1.1%) were called active. The shares of active, inactive and inconclusive entries below differ from those in the screen. Calls follow the shape of the dose curve; as a rule, active = well fitted inhibition curve with a large enough effect; inconclusive = small, poorly fitted or top-dose-only effect, or another doubt; inactive = no such curve, though single readings can be large or run the other way. Potencies of inconclusive entries are doubtful fits and often do not repeat.
What follows are molecules tested against Polyunsaturated fatty acid lipoxygenase ALOX12 (Homo sapiens) (UniProt P18054) (assay: Primary qHTS assay for inhibitors of human arachidonate 12S-lipoxygenase (ALOX12): Round 2). Details: purified 12hLO, xylenol orange hydroperoxide absorbance; series mostly up to 108 µM.
Procedure, shortened: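 Purified human 12hLO at 150 nM in 25 mM Hepes, 0.01% Triton X-100, pH 7.0, preincubated 15 min at room temperature with compound. Reaction started with 40 uM arachidonic acid, 30 min at room temperature. Hydroperoxide measured by Fe-xylenol orange, 573/405 nm absorbance ratio.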
Potency is read from the fitted curve at half-maximal effect.

Chains of the proteins cited; added tags and fusions are not shown. Lines headed by an entry give the natural chain unless they say otherwise; changes in a name come on top.
UniProt P18054: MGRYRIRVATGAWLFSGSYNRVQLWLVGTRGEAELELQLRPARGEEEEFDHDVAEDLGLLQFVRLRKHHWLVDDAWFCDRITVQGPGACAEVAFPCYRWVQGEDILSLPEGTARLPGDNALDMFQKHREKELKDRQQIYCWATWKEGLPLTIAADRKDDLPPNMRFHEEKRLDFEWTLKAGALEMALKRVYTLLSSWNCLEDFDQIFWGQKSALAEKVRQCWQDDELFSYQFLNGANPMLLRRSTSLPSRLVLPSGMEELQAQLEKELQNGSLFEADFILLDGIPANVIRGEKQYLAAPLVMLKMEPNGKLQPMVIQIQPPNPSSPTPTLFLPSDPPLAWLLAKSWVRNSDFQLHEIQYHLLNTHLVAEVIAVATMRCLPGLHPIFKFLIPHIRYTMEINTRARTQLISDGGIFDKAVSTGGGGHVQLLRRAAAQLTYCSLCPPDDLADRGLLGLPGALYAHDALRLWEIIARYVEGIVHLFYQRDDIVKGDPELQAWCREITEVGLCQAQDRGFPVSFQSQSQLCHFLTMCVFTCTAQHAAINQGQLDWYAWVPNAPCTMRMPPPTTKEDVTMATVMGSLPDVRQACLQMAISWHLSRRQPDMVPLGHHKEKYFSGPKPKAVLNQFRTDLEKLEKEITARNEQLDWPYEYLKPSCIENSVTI

| Structure (SMILES) | Potency |
| --- | --- |
| COc1ccccc1CNC(=O)[C@H]1C[C@@H](O)[C@H](O)[C@@H]2N=C(Nc3ccc(C)cc3)S[C@@H]21 | inconclusive: 35.5 µM [inhibitor, partial curve, poor fit] |
| O=C(COC(=O)Cn1cnc2ccccc21)Nc1ccc(Cl)cc1C(F)(F)F | inactive |
| CCOC(=O)c1cccc(-n2cccc2/C=C2\NC(=O)N(CC(=O)O)C2=O)c1 | inconclusive: 63.1 µM [inhibitor, partial curve, poor fit] |
| CCn1nnc2cc(C(=O)Nc3nc(-c4ccc5c(c4)CC(=O)N5)cs3)ccc21 | inactive |
| O=C(CSc1nc(=O)n(Cc2ccncc2)c2c1CCC2)Nc1cccc(F)c1 | inconclusive: 126 µM [inhibitor, partial curve, poor fit] |
| Cc1c(F)cc(C(N)=O)cc1NS(=O)(=O)c1cccc(Cl)c1C | inactive |
| Cc1nc(C2CC(O)C2)cc(N2CCN(CCc3ccccc3)CC2)n1 (stereo not given) | inactive |
| COc1cc(NC(=O)c2ccc3c(c2)NC(=O)CS3)c(OC)cc1Cl | inactive |
| COCc1cc(C)nc2sc(C(=O)Nc3ccccc3Br)c(N)c12 | inconclusive: 44.7 µM [inhibitor, single point] |
| CCn1c(SCC(=O)NCCc2ccccc2)nnc1-c1ccco1 | inactive |
| Cc1nn2c(c1-c1ccccc1C(C)C)N(C(=O)COc1ccccc1C(N)=O)CCC2 | inactive |
| Nc1cc(N)nc(SCCC(=O)Nc2ccccc2F)n1 | inconclusive: 3.55 µM [inhibitor, full curve] |
| Cc1ccc(C)c(N2CCN(c3ccc4cc(S(=O)(=O)N5CCCCC5)ccc4n3)CC2)c1 | inconclusive: 50.1 µM [inhibitor, partial curve, poor fit] |
| CCN(C(=O)C(NS(=O)(=O)c1ccc(Br)s1)c1ccccc1)c1ccc(C)c(C)c1 (stereo not given) | inactive |
| COc1ccc(S(=O)(=O)N2CCN(CCc3ccccc3)CC2)c(OC)c1 | inconclusive: 79.4 µM [inhibitor, partial curve, poor fit] |
| COc1ccc(C2=NOC(CNC(N)=S)C2)cc1 (stereo not given) | inconclusive: 44.7 µM [inhibitor, partial curve, poor fit] |
| COc1cccc(NC(=S)NCc2cccs2)c1 | inconclusive: 50.1 µM [inhibitor, partial curve, poor fit] |
| COC(=O)c1ccc2c(c1)nc1n2[C@@H](CNCc2ccc3c(c2)OCO3)COC1 | inconclusive: 15.8 µM [inhibitor, full curve, poor fit] |
| Cc1ccsc1-c1nc2ccccc2s1 | inconclusive: 35.5 µM [inhibitor, partial curve, poor fit] |
| CN(C(=O)c1cccc(NC(=O)Cc2ccc(NC(=O)C3CCN(S(=O)(=O)c4cccc([N+](=O)[O-])c4)CC3)cc2)c1)C1CCCCC1 | inconclusive: 63.1 µM [inhibitor, partial curve, poor fit] |

Shown as tab-separated lines: 3 of the compounds above.
Structure (SMILES)	Potency
Nc1cc(N)nc(SCCC(=O)Nc2ccccc2F)n1	inconclusive: 3.55 µM [inhibitor, full curve]
Cc1ccc(C)c(N2CCN(c3ccc4cc(S(=O)(=O)N5CCCCC5)ccc4n3)CC2)c1	inconclusive: 50.1 µM [inhibitor, partial curve, poor fit]
CCN(C(=O)C(NS(=O)(=O)c1ccc(Br)s1)c1ccccc1)c1ccc(C)c(C)c1 (stereo not given)	inactive

Later entries:

| Structure (SMILES) | Potency |
| --- | --- |
| CCCCCCNC(=O)c1cc(-c2ccco2)nc2ccccc12 | inconclusive: 5.62 µM [inhibitor, full curve, poor fit] |
| Cc1cc(NC(=O)NC(=O)c2ccccc2NC(=O)CN)ccc1Oc1ncc(Br)cn1 | inactive |
| CC(NC(=O)c1ccc2c(c1)NC(=O)CS2)c1ccco1 (stereo not given) | inconclusive: 7.08 µM [inhibitor, full curve, poor fit] |
| Cc1c(-c2ccccc2)[n+](=O)c(-c2ccco2)c(C)n1[O-] | inconclusive: 50.1 µM [inhibitor, partial curve, poor fit] and inconclusive: 7.08 µM [inhibitor, full curve, poor fit] |
| CC(C)C(=O)N1N=C(c2cc(Cl)ccc2Cl)CC1c1ccc2nccnc2c1 (stereo not given) | inconclusive: 89.1 µM [inhibitor, single point] |
| CCCN1C(=O)SC(CC(=O)Nc2ccccc2C)C1=O (stereo not given) | inactive |
| NC(=O)CC(NC(=O)Cc1ccc(Br)cc1)c1ccc(NC2CC3CCC2C3)c([N+](=O)[O-])c1 (stereo not given) | inconclusive: 50.1 µM [inhibitor, partial curve, poor fit] |
| CCCc1cc(N2CCCC2)n2nc(C)c(-c3ccccc3)c2n1 | inactive |
| CCc1cccc(NC(=O)C(Cc2ccccc2)NS(=O)(=O)c2cccs2)c1 (stereo not given) | inconclusive: 141 µM [inhibitor, partial curve, poor fit] |
| COc1ccc(Nc2ncnc3sccc23)cc1OC | inactive |
| O=C(c1ccco1)N1CCN(C(c2ccc(Cl)cc2)c2nnnn2Cc2ccccc2)CC1 (stereo not given) | inconclusive: 50.1 µM [inhibitor, single point] |
| CC(Oc1ccccc1Cl)C(=O)Nc1ccc(S(=O)(=O)N2CCCC2)cc1 (stereo not given) | inactive |
| COc1ccc(NC(=O)Cn2c(-c3cccc(Cl)c3)nc(C)c(CCO)c2=O)cc1OC | inconclusive: 56.2 µM [inhibitor, partial curve] |
| COc1ccc(NC(=O)c2ccccc2OCc2c(C)noc2C)cc1OC | inconclusive: 3.55 µM [inhibitor, full curve, poor fit] |
| COc1ccc(NC(=O)CN2C(=O)/C(=C3\SC(=S)N(C4CCS(=O)(=O)C4)C3=O)c3ccccc32)cc1 (stereo not given) | inconclusive: 35.5 µM [inhibitor, partial curve, poor fit] |
| COc1ccc2[nH]c(-c3cccc(F)c3)cc(=O)c2c1 | inconclusive: 7.94 µM [inhibitor, partial curve, poor fit] |
| COc1cc(CC(=O)OCC(=O)NC(C)c2ccccc2)cc(OC)c1OC (stereo not given) | inconclusive: 39.8 µM [inhibitor, single point] |
| COc1ccc(CNC(=O)c2cc3n(n2)CC(c2ccc(Cl)cc2)OC3)cc1OC (stereo not given) | inactive |
| O=[N+]([O-])c1ccc(N/N=C/c2cn(Cc3ccc(F)cc3)c3ccccc23)nc1 | inconclusive: 25.1 µM [inhibitor, full curve, poor fit] |
| COC(=O)c1cc(S(=O)(=O)NCC2CCN(CCc3ccc(OC)cc3)CC2)c[nH]1 | inconclusive: 25.1 µM [inhibitor, partial curve, poor fit] |
